Test results reported in patent publication US20020122799A1.
Results are given in words; binding and its absence hold for the method and conditions named. Some entries that bind do so weakly or less than the wild type.

Chains of the proteins cited; added tags and fusions are not shown. Residues count along the entry.
UniProt Q15109, residues 23-342: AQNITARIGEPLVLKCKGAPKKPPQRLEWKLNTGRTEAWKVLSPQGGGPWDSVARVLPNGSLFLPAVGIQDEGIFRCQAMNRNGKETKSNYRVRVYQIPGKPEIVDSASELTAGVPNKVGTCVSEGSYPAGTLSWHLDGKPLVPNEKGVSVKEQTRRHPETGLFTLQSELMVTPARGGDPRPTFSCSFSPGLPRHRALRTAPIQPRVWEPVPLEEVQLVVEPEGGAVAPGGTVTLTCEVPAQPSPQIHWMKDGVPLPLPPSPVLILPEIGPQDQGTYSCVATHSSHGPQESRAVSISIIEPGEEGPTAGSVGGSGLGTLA

Columns and labels:
[1] = molecular target: T1, EN-RAGE (Extracellular Novel RAGE binding protein) (bovine) (UniProt P79105); assay: competition: 50-fold molar excess of sRAGE against 125I-EN-RAGE binding to RAGE-bearing CHO cells
T1 sequence (radiolabelled with 125-I (Iodobeads) in the radioligand binding assays, looked up): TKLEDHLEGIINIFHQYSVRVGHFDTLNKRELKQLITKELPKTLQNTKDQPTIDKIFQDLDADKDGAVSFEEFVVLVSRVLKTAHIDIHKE

[2] = molecular target: T1, EN-RAGE (Extracellular Novel RAGE binding protein) (bovine); assay: competition: sRAGE blocks binding of EN-RAGE to immobilized and cellular RAGE
[3] = molecular target: T1, EN-RAGE (Extracellular Novel RAGE binding protein) (bovine); assay: affinity chromatography on immobilized soluble human RAGE and screening of immobilized column fractions with 125-I-labelled sRAGE
[4] = molecular target: T1, EN-RAGE (Extracellular Novel RAGE binding protein) (bovine); assay: isolation of RAGE-binding proteins from bovine lung extract

binding [1]: binds | binding [2]: binds | binding [3]: binds | binding [4]: binds
Substance: soluble human RAGE (sRAGE) (from UniProt Q15109 23-342) (receptor)
